Some of the results follow.
These targets were tested with C1=CC2=NC=CN=C2C=C1/C=C/3\C(=O)NC(=O)S3 (assay: log2 fold change, soluble protein after heating vs DMSO (PISA); higher = thermal stabilisation; K562 lysate, 10 uM; active = over 0.2 and 3.5 SD of the protein, either way, in both replicates (recomputed)).
Procedure, shortened: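 Soluble protein was defined as the supernatant remaining after 21,000xg for 90 min, following pooling of heated aliquots and adjustment to 0.5% NP-40 at 4°C. Before that, crude K562 extract at 1 mg/mL protein in PBS pH 7.4 with 1 mM MgCl2 was treated with 10 μM compound for 30 min and heated for 3 min across 48°C-58°C. Quantification used TMTpro 16plex LC-MS/MS with channel sums equalised, and values are log-two fold changes in thermal stability relative to solvent controls from duplicates.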

Chains of the proteins cited; added tags and fusions are not shown. Lines headed by an entry give the natural chain unless they say otherwise; changes in a name come on top.
UniProt Q86W50: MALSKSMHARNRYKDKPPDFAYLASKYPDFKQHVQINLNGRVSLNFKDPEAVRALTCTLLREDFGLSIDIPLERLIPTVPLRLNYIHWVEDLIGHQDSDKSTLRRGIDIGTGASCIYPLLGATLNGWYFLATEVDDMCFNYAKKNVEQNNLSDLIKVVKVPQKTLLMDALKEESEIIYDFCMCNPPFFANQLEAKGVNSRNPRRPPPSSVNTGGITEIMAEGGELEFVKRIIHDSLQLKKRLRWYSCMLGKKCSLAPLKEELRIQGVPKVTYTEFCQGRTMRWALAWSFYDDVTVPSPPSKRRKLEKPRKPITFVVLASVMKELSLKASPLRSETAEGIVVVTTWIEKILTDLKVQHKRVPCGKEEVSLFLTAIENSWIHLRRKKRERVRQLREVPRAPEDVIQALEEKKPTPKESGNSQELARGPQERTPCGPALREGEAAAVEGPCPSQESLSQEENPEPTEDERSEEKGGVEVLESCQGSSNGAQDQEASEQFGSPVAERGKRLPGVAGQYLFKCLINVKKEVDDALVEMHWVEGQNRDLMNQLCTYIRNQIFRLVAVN
UniProt Q86XN8: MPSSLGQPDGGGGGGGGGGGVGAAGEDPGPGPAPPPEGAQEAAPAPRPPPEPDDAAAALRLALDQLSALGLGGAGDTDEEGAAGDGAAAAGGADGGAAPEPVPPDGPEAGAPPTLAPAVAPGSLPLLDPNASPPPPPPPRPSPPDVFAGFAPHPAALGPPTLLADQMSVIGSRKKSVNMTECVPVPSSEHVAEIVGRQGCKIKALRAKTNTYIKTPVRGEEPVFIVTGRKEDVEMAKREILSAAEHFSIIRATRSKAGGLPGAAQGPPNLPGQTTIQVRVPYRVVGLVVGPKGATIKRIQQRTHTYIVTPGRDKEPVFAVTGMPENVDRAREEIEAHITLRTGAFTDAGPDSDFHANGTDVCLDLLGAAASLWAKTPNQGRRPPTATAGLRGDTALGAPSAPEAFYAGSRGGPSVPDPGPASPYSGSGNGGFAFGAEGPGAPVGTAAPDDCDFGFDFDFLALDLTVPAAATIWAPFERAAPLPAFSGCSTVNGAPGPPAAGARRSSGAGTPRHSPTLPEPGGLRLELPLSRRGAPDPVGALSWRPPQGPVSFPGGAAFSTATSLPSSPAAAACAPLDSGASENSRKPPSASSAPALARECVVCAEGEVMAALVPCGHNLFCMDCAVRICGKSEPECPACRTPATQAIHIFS
UniProt Q9NPJ6: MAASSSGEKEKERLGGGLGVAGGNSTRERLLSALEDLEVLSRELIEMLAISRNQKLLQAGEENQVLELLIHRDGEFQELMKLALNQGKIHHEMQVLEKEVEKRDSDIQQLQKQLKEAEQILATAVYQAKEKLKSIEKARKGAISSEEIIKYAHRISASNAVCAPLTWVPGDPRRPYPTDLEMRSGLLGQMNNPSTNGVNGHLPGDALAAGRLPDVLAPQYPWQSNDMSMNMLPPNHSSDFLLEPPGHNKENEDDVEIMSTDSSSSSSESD
UniProt Q06413, whole entry, looked up: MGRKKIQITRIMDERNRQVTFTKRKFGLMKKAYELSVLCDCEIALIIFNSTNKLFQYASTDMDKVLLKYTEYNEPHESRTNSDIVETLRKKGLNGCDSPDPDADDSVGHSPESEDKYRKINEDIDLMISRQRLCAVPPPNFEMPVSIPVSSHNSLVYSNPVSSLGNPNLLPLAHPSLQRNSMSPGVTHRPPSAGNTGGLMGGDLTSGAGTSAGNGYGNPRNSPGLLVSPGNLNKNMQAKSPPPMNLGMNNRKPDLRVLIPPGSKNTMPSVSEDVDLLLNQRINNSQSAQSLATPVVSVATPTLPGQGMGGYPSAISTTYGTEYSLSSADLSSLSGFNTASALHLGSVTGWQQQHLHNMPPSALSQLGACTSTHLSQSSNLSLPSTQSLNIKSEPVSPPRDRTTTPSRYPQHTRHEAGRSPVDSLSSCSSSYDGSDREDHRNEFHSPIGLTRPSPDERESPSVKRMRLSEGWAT
UniProt Q96IZ6: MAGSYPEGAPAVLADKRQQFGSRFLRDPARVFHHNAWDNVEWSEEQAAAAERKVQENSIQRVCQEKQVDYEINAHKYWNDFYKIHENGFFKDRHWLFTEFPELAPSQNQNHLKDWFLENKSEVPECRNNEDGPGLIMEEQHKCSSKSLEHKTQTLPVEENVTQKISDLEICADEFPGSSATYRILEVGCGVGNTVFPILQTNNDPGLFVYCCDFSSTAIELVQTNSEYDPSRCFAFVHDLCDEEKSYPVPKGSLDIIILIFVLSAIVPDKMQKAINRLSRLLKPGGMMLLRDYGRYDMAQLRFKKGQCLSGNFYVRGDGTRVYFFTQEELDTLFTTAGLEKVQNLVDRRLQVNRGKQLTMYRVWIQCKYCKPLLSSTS
UniProt Q96G25: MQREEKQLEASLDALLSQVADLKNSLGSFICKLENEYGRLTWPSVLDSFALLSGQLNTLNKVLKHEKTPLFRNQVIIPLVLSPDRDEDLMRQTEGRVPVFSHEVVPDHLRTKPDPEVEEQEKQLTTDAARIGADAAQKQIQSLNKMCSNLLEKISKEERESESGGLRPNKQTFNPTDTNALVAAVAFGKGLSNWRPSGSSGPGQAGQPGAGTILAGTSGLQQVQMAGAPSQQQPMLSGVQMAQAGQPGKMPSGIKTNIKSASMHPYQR
UniProt Q6ZWT7: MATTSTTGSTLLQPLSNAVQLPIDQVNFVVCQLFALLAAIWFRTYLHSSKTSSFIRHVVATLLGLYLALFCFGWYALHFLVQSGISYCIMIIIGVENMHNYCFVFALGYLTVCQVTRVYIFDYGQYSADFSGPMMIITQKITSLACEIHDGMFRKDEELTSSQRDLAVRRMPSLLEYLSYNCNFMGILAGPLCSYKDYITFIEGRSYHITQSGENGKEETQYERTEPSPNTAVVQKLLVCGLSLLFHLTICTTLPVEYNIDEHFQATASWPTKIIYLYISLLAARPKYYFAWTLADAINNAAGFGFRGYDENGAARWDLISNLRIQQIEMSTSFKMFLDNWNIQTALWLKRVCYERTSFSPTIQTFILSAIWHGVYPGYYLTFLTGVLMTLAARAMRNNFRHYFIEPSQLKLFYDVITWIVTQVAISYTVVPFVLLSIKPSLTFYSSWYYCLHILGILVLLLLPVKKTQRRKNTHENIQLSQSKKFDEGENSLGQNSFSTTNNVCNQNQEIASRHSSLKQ
UniProt Q08431: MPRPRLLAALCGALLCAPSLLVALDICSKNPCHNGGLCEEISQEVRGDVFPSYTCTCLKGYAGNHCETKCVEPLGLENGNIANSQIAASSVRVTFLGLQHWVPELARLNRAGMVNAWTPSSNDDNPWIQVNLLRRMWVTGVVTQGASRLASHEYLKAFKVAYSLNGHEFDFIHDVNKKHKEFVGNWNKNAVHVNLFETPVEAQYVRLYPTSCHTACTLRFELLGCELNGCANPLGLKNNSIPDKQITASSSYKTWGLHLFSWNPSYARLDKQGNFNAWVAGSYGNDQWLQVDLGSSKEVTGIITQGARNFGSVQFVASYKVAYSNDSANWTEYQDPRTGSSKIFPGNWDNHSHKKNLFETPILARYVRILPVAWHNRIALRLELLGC
UniProt P48163: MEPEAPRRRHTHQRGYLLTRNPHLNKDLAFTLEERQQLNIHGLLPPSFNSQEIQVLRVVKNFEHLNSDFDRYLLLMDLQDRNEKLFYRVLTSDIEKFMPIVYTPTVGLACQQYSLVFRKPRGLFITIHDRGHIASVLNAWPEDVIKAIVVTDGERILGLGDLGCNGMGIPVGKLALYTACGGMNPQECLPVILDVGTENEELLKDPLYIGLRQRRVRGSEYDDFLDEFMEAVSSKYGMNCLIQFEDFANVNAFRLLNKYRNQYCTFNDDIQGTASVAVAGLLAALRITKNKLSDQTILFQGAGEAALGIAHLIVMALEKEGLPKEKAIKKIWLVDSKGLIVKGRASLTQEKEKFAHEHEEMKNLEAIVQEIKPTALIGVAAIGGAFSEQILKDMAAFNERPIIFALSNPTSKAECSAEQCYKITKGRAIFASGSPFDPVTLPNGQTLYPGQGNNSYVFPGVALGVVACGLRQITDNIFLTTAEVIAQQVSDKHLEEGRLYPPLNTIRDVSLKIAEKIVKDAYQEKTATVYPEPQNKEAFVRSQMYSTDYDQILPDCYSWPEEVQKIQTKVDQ
UniProt Q8IWA4: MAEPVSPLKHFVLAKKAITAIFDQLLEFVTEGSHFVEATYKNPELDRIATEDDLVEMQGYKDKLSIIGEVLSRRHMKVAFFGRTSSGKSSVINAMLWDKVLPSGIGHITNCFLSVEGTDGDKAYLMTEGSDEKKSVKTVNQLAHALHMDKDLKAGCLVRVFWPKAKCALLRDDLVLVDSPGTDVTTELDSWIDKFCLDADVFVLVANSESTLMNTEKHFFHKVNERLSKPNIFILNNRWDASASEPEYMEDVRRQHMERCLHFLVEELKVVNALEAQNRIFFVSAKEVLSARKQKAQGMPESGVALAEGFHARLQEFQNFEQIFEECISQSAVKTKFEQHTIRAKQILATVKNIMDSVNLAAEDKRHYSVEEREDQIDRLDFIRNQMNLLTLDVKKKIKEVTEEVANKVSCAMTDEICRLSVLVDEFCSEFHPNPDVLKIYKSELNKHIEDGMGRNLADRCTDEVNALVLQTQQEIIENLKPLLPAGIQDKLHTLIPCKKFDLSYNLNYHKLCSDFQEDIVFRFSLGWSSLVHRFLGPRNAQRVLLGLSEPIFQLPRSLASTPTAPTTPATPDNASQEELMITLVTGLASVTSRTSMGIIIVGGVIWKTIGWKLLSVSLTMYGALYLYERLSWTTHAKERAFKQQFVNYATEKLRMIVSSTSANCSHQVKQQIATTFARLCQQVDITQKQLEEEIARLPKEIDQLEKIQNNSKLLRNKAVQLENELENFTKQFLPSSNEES
UniProt P50579: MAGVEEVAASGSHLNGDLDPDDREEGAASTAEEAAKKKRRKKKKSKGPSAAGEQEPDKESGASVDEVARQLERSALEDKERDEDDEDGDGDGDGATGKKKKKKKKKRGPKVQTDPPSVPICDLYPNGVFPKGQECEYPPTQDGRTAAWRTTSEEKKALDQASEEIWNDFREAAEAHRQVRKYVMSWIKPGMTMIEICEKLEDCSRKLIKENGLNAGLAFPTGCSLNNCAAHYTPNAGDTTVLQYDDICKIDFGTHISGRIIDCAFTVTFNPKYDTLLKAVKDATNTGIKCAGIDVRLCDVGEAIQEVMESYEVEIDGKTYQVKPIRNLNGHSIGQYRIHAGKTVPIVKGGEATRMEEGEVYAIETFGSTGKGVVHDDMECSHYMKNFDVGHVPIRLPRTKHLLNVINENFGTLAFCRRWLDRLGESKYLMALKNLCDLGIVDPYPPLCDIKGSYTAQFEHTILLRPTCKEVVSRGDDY
UniProt Q9NVC6: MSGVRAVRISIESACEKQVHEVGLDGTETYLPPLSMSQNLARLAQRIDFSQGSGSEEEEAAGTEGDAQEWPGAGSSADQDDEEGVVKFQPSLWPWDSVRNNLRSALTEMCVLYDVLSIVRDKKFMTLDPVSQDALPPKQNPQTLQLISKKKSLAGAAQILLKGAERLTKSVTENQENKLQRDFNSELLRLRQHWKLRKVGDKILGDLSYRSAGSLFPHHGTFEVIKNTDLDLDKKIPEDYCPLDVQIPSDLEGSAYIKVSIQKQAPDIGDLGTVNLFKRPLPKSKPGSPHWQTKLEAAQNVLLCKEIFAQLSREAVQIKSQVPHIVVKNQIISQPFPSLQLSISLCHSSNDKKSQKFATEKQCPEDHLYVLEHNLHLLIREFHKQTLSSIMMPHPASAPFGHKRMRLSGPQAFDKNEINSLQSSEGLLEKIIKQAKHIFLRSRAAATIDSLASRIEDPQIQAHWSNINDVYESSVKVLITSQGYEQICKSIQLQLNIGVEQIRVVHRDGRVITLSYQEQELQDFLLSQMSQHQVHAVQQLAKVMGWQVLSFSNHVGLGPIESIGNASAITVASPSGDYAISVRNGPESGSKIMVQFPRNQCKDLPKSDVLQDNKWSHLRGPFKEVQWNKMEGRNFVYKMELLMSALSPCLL
UniProt Q96HR3: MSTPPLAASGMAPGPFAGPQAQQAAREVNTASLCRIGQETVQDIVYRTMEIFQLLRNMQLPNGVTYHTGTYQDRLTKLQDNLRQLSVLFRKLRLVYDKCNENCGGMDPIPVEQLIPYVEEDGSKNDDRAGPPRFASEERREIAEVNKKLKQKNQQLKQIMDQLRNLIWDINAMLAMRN
UniProt Q9H3U5: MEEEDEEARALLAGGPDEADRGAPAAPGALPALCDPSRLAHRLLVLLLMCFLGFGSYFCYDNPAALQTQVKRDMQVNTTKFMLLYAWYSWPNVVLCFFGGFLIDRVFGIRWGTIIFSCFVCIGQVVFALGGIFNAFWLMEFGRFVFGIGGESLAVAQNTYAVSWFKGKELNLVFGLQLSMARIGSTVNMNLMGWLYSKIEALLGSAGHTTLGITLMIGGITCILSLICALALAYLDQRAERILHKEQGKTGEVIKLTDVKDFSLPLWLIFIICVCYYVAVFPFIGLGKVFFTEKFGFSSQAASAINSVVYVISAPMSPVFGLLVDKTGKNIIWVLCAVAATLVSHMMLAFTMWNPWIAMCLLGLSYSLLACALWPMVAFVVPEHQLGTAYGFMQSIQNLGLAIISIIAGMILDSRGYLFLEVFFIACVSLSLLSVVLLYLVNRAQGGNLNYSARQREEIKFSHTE

log2 fold change, inactive:
METTL16 (UniProt Q86W50) -0.034
MEX3D isoform 3 (UniProt Q86XN8) -0.042
MED4 (UniProt Q9NPJ6) -0.017
MEF2C isoform 5 (UniProt Q06413) -0.088
MED22 isoform 2 (UniProt Q15528) -0.031
MFSD10 (UniProt Q14728) 0.019
MDH1 isoform 3 (UniProt P40925) 0
MCM4 (UniProt P33991) 0.029
METTL2A (UniProt Q96IZ6) 0
MED8 isoform 2 (UniProt Q96G25) 0.027
MCFD2 (UniProt Q8NI22) 0.003
MESD (UniProt Q14696) -0.006
METTL7A (UniProt Q9H8H3) -0.041
MED20 (UniProt Q9H944) 0.022
MEF2D (UniProt Q14814) 0.035
MCU (UniProt Q8NE86) 0.057
MAZ isoform 2 (UniProt P56270) -0.055
MBOAT2 (UniProt Q6ZWT7) -0.036
MDN1 (UniProt Q9NU22) 0.02
MFN2 (UniProt O95140) 0.005
MED14 (UniProt O60244) 0.015
MFGE8 (UniProt Q08431) -0.014
ME1 (UniProt P48163) 0.005
MFN1 (UniProt Q8IWA4) 0.001
METAP1 (UniProt P53582) -0.041
MED13L (UniProt Q71F56) 0.034
MCM5 (UniProt P33992) -0.012
MED15 (UniProt Q96RN5) -0.031
MED7 (UniProt O43513) 0.063
MED12 isoform 2 (UniProt Q93074) 0.008
METAP2 (UniProt P50579) -0.012
MBNL1 (UniProt C9JP00) -0.029
MED13 (UniProt Q9UHV7) -0.003
MED26 (UniProt O95402) 0.04
MED1 (UniProt Q15648) 0.008
MED17 (UniProt Q9NVC6) -0.017
MED30 (UniProt Q96HR3) 0.044
MFSD1 isoform 6 (UniProt Q9H3U5) 0.031

Retrieved one by one from the list above (two):
log2 fold change, inactive:
MCFD2 (UniProt Q8NI22) 0.003
MCM5 (UniProt P33992) -0.012
